Results reported in patent US20080160033A1, “Novel Screening Method” (Takeda Pharmaceutical Company Limited, priority 2003, published 2008).
At least one compound was matched to its structure with a doubt left.

Molecular target: T1, mouse 14273 (Mus musculus, UniProt Q7TMA4)
T1 construct: expressed in transfected cells; host or cells: CHO-K1, transient transfection (Lipofectamine) with the pAKKO-111-based expression vector
T1 sequence (Q7TMA4 1-361): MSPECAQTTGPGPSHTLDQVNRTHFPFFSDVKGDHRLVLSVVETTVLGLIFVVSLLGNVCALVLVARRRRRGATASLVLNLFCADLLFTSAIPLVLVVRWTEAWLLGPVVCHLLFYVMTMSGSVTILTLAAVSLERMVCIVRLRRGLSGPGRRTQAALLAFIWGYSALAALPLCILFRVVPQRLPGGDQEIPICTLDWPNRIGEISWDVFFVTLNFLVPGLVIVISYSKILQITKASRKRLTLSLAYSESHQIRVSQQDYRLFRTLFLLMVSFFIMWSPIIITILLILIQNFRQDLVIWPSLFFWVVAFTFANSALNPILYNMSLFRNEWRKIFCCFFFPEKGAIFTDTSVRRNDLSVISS
Experiment: Change in intracellular calcium level (FLIPR) in CHO-K1 cells transiently expressing mouse 14273
Format: cell-based
Conditions: 30 μM fatty acid (FIG. 1-5); mouse 14273-expressed CHO-K1 cells; no response in expression vector alone-transfected control cells
Description: CHO-K1 cells were incubated in Ham F-12 medium (Invitrogen) containing […] calf fetal serum, unless otherwise indicated. On the day before transfection, the cells were plated in 4.5×10^5/10 cm^2 and incubated at 37° C., for 15 hours or longer in a CO2 incubator adjusted to a 5% CO2 concentration. Transfection was carried out by a modification of the procedure described in the protocol attached to the reagent, using Lipofectamine reagent (Invitrogen). Where a 6-well plate was used for the incubator, the procedure was performed as follows. First, 2 tubes each having a 1.5 ml volume were prepared and 100 μl each of Opti-MEM-1 medium (Invitrogen) were dispensed in each tube. Next, after 1 μg of the expression vector was charged in one tube and in another tube 6 μl of the Lipofectamine reagent was charged, they were mixed and settled at room temperature for 20 minutes. […] The cells collected were counted and diluted to contain 5×10^4 cells per 100 μl of the medium. […] Various samples were added to the CHO-K1 cells, which transiently expressed the receptor by the transfection procedure described above, and a change in intracellular calcium level was measured using FLIPR (Molecular Device). […] Following the pretreatment above, a change in intracellular calcium level was determined with FLIPR, after various test samples were added.

## CC/C=C\C/C=C\C/C=C\C/C=C\C/C=C\C/C=C\CCC(=O)O [docosahexaenoic acid]
  change in intracellular calcium level: specifically responded (increased the intracellular calcium level)
